Results are given in words; binding and its absence hold for the method and conditions named. Some results given as binding are weak or reduced against the parent protein; the word gives no strength.
Tests used:
[1] = target: protein A (albumin) (bovine (endogenous in fetal bovine serum)) (UniProt P02769); assay: cross-linking; proteins A, B and D (4 μg) with glutaraldehyde (1X = 0.00625%) in 10 μl PC buffer, 37 °C 30 min; 8% reduced SDS-PAGE, Coomassie and Western blotting; monomer to dimer of the albumin-α1-antitrypsin unit; dimerization inhibited by 2 × SDS and 0.05% β-ME; both purified
[2] = target: protein A (albumin) (bovine (endogenous in fetal bovine serum)) (UniProt P02769); assay: co-purification and non-reducing SDS-PAGE with Western blot and LC/MS/MS; purified protein D on non-reducing 8% SDS-PAGE; antibodies against albumin and α1-antitrypsin; bands after reduction identified by LC/MS/MS; both purified
[3] = target: protein B (α1-antitrypsin) (bovine (endogenous in fetal bovine serum)) (UniProt P34955); assay: cross-linking; proteins A, B and D (4 μg) with glutaraldehyde (1X = 0.00625%) in 10 μl PC buffer, 37 °C 30 min; 8% reduced SDS-PAGE, Coomassie and Western blotting; monomer to dimer of the albumin-α1-antitrypsin unit; dimerization inhibited by 2 × SDS and 0.05% β-ME; both purified
[4] = target: protein A (albumin) (bovine (endogenous in fetal bovine serum)) (UniProt P02769); assay: SDS-PAGE, Western blot, native PAGE and HPLC after reduction; protein D with increasing β-ME (0.05–0.8%); non-reducing SDS-PAGE, Western blotting, horizontal native PAGE pH8.8, HPLC-C4; both purified

Sequences of proteins named here, by UniProt entry; tags and fusion partners are left off. Residues count along the entry.
UniProt P02769, residues 25-607: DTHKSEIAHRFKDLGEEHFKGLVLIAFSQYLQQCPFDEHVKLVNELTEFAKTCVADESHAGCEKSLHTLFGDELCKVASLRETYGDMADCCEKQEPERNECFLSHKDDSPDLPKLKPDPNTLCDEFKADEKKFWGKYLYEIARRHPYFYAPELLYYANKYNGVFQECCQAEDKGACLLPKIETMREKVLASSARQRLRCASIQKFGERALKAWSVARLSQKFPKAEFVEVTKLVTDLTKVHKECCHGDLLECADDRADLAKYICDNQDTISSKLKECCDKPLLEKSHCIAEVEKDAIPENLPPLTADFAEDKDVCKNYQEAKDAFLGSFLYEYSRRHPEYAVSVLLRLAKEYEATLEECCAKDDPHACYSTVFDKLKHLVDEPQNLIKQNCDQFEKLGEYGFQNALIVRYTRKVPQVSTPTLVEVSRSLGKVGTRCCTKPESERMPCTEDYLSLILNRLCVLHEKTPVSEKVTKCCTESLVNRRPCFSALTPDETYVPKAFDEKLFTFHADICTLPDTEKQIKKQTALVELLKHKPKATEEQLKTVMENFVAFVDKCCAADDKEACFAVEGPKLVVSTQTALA

binding [1]	binding [2]	binding [3]	Molecule	binding [4]
no binding			protein A (albumin) (from UniProt P02769 25-607) (other; other documents disagree on this pair)	
	binds	no binding	protein B (α1-antitrypsin) (protein, UniProt P34955 25-416) GVLQGHAVQETDDTSHQEAACHKIAPNLANFAFSIYHHLAHQSNTSNIFFSPVSIASAFAMLSLGAKGNTHTEILKGLGFNLTELAEAEIHKGFQHLLHTLNQPNHQLQLTTGNGLFINESAKLVDTFLEDVKNLYHSEAFSINFRDAEEAKKKINDYVEKGSHGKIVELVKVLDPNTVFALVNYISFKGKWEKPFEMKHTTERDFHVDEQTTVKVPMMNRLGMFDLHYCDKLASWVLLLDYVGNVTACFILPDLGKLQQLEDKLNNELLAKFLEKKYASSANLHLPKLSISETYDLKSVLGDVGITEVFSDRADLSGITKEQPLKVSKALHKAALTIDEKGTEAVGSTFLEAIPMSLPPDVEFNRPFLCILYDRNTKSPLFVGKVVNPTQA	no binding (condition: with β-ME (0.05–0.8%))
